Measurements from patent US12673050B2, “Compositions and their use for the treatment of A1-antitrypsin deficiency” (Centessa Pharmaceuticals (UK) Limited, priority 2021, dated 2026).
Some results were stated once for a whole list of compounds, not compound by compound.

Assay: DiscoverX Safety47 panel of enzymes, ion channels and receptors
Settings: at 10 μM

SMILES	maximum inhibition of any target in Safety47 panel [%]
O=C(O)[C@@H]1CCCN(S(=O)(=O)c2ccccc2C(F)(F)F)C1 [(R)-1-((2-(Trifluoromethyl)phenyl)sulfonyl)piperidine-3-carboxylic acid]	≤ 25
O=C(O)[C@H]1CCCN(S(=O)(=O)c2ccccc2C(F)(F)F)C1 [(S)-1-((2-(Trifluoromethyl)phenyl)sulfonyl)piperidine-3-carboxylic acid]	≤ 25
